Results as given in paper PMC12021911 (Frontiers in Microbiology, 2025).

Experiment: general procedure: Fmoc solid-phase peptide synthesis; Fmoc-Rink amide AM resin (100–200 mesh, loading capacity 0.62 mmol/g); DIC/HOBT (8 eq.) in DMF
Conditions: whole synthesis

Substance | purity (crude or final not stated) [%]
VRLIVAVRIWRR-NH2 | 94
KRFRIRVRV-NH2 | 99
VDKPPYLPRPRPPRrIYNr-NH2 | 87
VDKPPYLPRPRPPROIYNO-NH2 | 95
